This list was built around the results that the source calls inconclusive (neither active nor inactive); the mix of calls is not that of the screen. Potencies beside an inconclusive call are fits to weak or partial responses and may not hold up. Calls of active or inactive are those of the source. Calls come from the whole dose curve; as a rule, active = well fitted inhibition curve with a large enough effect; inconclusive = small, poorly fitted or top-dose-only effect; inactive = flat fitted curve, though single readings scatter.
biological target: Luciferin 4-monooxygenase (Photinus pyralis) (UniProt P08659); experiment: FLuc inhibitory activity for the follow-up compounds in a biochemical assay with 1mM ATP; conditions: purified P. pyralis luciferase, luminescence; series mostly up to 57.5 µM
From the text: NCGC Assay Overview: Firefly (Photinus pyralis) luciferase is one of the most commonly used transcriptional reporters. It is considered one of the more dynamically responsive reporters - that is, responsive to changes in reporter transcription - as it requires no post-translational modifications and is enzymatically active directly after protein synthesis (Wood, 1998). With no endogenous expression in mammalian cells and without the requirement of external excitation, it offers very little background signal, thus generally providing excellent signal to background for most assays. Previous profiling work to determine the prevalence of compounds that affect FLuc enzymatic activity (PubChem AID 411) identified that ~3% of the MLSMR library (then at ~72K) inhibited FLuc. […] Of the compounds identified in this profile that inhibited FLuc, 151 compounds were selected for further analysis, in an effort to better understand their mode of inhibiting FLuc. The assay described here was to determine the activity of the compounds in a FLuc assay that contained a KM concentration of D-luciferin and a high concentration (1mM) of ATP.
NCGC Assay Protocol Summary: Reagents: 50mM Tris acetate, pH 7.5; 10mM Mg acetate; 10uM D-luciferin (Sigma #L9504); 1mM ATP; 0.01% Tween-20; 0.05% BSA; 10nM P. pyralis luciferase (Sigma #L9506) Control compounds used were two known firefly luciferase inhibitors (3-(5-(3-chlorophenyl)-1,2,4-oxadiazol-3-yl)benzoic acid and 5-(2-fluorophenyl)-3-phenyl-1,2,4-oxadiazole), and DMSO. Three microliters containing firefly luciferase substrates in buffer (final concentrations: 50mM Tris acetate, pH 7.5, 10mM Mg acetate, 0.01% Tween-20, 0.05% BSA, 10uM D-luciferin, 1mM ATP) are dispensed into each well of a Greiner white, solid-bottom 1536-well format plate using a flying reagent dispenser (FRD). These assay plates were then treated with 23nL of compound or DMSO using a Kalypsys pin tool, which allows for delivery of a 12-point intraplate titration of each compound to the assay plate (quantitative HTS), with a final compound concentrations ranging from approximately ~60uM to 0.3nM. One microliter of firefly luciferase in […] Tris-acetate buffer was then delivered by FRD to each well for a final enzyme concentration of 10nM. Luciferase activity was then measured using a ViewLux CCD imager (PerkinElmer), with an average exposure time of 2-30 seconds (2X binning, medium/high gain).

The chains behind the UniProt entries cited, without tags or fusion partners.
UniProt P08659, whole entry, looked up: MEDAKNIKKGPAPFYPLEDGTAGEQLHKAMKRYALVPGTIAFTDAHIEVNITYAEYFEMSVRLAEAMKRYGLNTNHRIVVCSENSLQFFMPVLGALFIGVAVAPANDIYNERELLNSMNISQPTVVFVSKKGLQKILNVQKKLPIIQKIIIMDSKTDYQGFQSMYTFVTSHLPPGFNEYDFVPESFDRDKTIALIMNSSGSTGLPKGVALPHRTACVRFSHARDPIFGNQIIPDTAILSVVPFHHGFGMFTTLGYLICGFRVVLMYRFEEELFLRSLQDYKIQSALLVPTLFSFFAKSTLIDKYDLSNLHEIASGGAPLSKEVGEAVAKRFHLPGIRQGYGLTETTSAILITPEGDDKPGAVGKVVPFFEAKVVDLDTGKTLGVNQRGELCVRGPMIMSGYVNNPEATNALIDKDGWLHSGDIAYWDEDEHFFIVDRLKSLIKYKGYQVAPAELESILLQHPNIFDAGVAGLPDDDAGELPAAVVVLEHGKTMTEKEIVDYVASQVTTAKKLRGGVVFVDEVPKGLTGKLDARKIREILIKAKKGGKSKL

Compound	Potency
O=C(O)c1cccc(NC(=O)c2ccccc2NC(=O)c2ccco2)c1	inconclusive: 29.1 µM [inhibitor, partial curve, poor fit]
CCc1noc(C)c1C(=O)Nc1nc2ccc(OC)cc2s1	inconclusive: 46.1 µM [inhibitor, single point]
O=C(Nc1ccc(Cl)cc1-c1nc2ccccc2s1)c1ccco1	inconclusive: 23.1 µM [inhibitor, partial curve]
COc1ccc(-c2nc3ccccc3s2)cc1O	active: 0.0259 µM
COc1cc(OC)cc(C(=O)Nc2ccc(-c3nc4ccccc4s3)c(C)c2)c1	inconclusive: 41.1 µM [inhibitor, single point]
COc1ccc2nc(NC(=O)CCc3nc(-c4ccccc4F)no3)sc2c1	inactive
Cc1cccc(C(=O)Nc2ccccc2C(=O)Nc2ccc(C(=O)O)cc2)c1	inconclusive: 0.013 µM [inhibitor, full curve, poor fit]
O=C(Nc1ccccc1C(=O)O)c1ccccc1	inconclusive: 36.6 µM [inhibitor, partial curve]
Cc1ccc(S(=O)(=O)N2CCOCC2)cc1C(=O)Nc1ccccc1C(=O)O	inactive
COc1cc(C(=O)Nc2cc(C)c(O)c(-c3nc4ccccc4s3)c2)cc(OC)c1OC	inactive
Cc1cccc(C(=O)Nc2ccc(-c3nc4ccccc4s3)cc2Cl)c1	inconclusive: 20.6 µM [inhibitor, partial curve]
O=C(Cc1ccc(Cl)cc1)Nc1cccc(C(=O)Nc2ccccc2C(=O)O)c1	inconclusive: 32.6 µM [inhibitor, partial curve]
Cc1ccc(S(=O)(=O)N2CCN(C(=O)c3ccccc3-c3nc4ccccc4s3)CC2)c(C)c1	inactive
COc1ccc(CC(=O)Nc2cccc(C(=O)Nc3ccccc3C(=O)O)c2)cc1OC	inconclusive: 36.6 µM [inhibitor, partial curve]
O=C(Nc1ccccc1C(=O)Nc1ccccc1C(=O)O)c1ccccc1	inconclusive: 32.6 µM [inhibitor, partial curve]
COc1ccc2nc(NC(=O)C3CCN(S(=O)(=O)c4cccs4)CC3)sc2c1	inconclusive: 14.6 µM [inhibitor, single point]
CC(=O)Nc1cccc(-c2nc3ccccc3s2)c1C	inconclusive: 25.9 µM [inhibitor, partial curve, poor fit]
Cc1cccc(NS(=O)(=O)c2cccc(C(=O)Nc3cccc(C(=O)O)c3)c2)c1	inconclusive: 29.1 µM [inhibitor, partial curve]
CC(C)Oc1ccc(C(=O)Nc2ccc(-c3nc4ccccc4s3)cc2)cc1	inactive
CC(=O)Oc1ccc(C(=O)Nc2ccccc2C(=O)Nc2cccc(C(=O)O)c2)cc1	inconclusive: 32.6 µM [inhibitor, partial curve]

Compound	Potency
COc1ccc2nc(NC(=O)c3ccc(NS(=O)(=O)c4cccs4)cc3)sc2c1	inconclusive: 20.6 µM [inhibitor, partial curve]
COc1ccc2nc(NC(=O)c3cccc(S(=O)(=O)N4CCOCC4)c3)sc2c1	inconclusive: 36.6 µM [inhibitor, partial curve]
O=C(Nc1ccccc1C(=O)O)c1cc(S(=O)(=O)Nc2ccccc2)ccc1Cl	inactive
O=C(O)c1cccc(NC(=O)c2cccc(NC(=O)C3CCCO3)c2)c1 (stereo not given)	active: 4.11 µM
COc1ccc2nc(NC(=O)c3nc(S(=O)(=O)Cc4ccc(C)cc4)ncc3Cl)sc2c1	inconclusive: 20.6 µM [inhibitor, partial curve, poor fit]
COc1ccc2nc(NC(=O)c3ccccc3C(=O)O)sc2c1	inconclusive: 32.6 µM [inhibitor, partial curve]
O=C(O)c1ccc(NC(=O)c2cccc(NC(=O)c3cccs3)c2)cc1	inconclusive: 36.6 µM [inhibitor, partial curve]
Cc1ccc(NS(=O)(=O)c2ccc(Cl)c(C(=O)Nc3cccc(C(=O)O)c3)c2)cc1	inactive
CC(C)c1ccc(C(=O)Nc2ccc(-c3nc4ccccc4s3)c(Cl)c2)cc1	inactive
O=C(O)c1cccc(NC(=O)c2ccccc2NC(=O)c2ccccc2F)c1	inconclusive: 41.1 µM [inhibitor, partial curve, poor fit]
CN(C)S(=O)(=O)c1ccc(C(=O)Nc2cccc(C(=O)O)c2)cc1	inconclusive: 20.6 µM [inhibitor, partial curve]
O=C(Nc1ccccc1C(=O)O)c1cccc(NC(=O)c2ccccc2Cl)c1	active: 20.6 µM
O=C(Cc1ccccc1)Nc1ccccc1C(=O)Nc1ccc(C(=O)O)cc1	inactive
O=C(O)c1cccc(NC(=O)c2cccc(S(=O)(=O)Nc3cccc(F)c3)c2)c1	inconclusive: 20.6 µM [inhibitor, partial curve]
O=C(O)c1ccc(NC(=O)c2ccccc2NC(=O)c2ccccc2Br)cc1	inactive
O=C(O)c1ccccc1NC(=O)c1ccccc1Nc1ccccc1	inconclusive: 32.6 µM [inhibitor, single point]
O=C(O)c1ccc(NC(=O)c2cc(S(=O)(=O)N3CCCCC3)c(Cl)cc2Cl)cc1	inactive
Cc1c(NC(=O)c2cccs2)cccc1-c1nc2ccccc2s1	inconclusive: 16.3 µM [inhibitor, partial curve]
O=C(O)c1ccc(NC(=O)c2ccccc2NC(=O)c2cccc(Br)c2)cc1	inconclusive: 36.6 µM [inhibitor, partial curve, poor fit]
COc1ccc2nc(NC(=O)C3CCN(S(=O)(=O)c4cccnc4)CC3)sc2c1	inactive

Given bar-delimited: part of the list above
Compound | Potency
O=C(O)c1cccc(NC(=O)c2cccc(NC(=O)C3CCCO3)c2)c1 (stereo not given) | active: 4.11 µM
COc1ccc2nc(NC(=O)c3nc(S(=O)(=O)Cc4ccc(C)cc4)ncc3Cl)sc2c1 | inconclusive: 20.6 µM [inhibitor, partial curve, poor fit]
CC(C)c1ccc(C(=O)Nc2ccc(-c3nc4ccccc4s3)c(Cl)c2)cc1 | inactive
CN(C)S(=O)(=O)c1ccc(C(=O)Nc2cccc(C(=O)O)c2)cc1 | inconclusive: 20.6 µM [inhibitor, partial curve]
O=C(Nc1ccccc1C(=O)O)c1cccc(NC(=O)c2ccccc2Cl)c1 | active: 20.6 µM
O=C(Cc1ccccc1)Nc1ccccc1C(=O)Nc1ccc(C(=O)O)cc1 | inactive
O=C(O)c1ccc(NC(=O)c2ccccc2NC(=O)c2ccccc2Br)cc1 | inactive
Cc1c(NC(=O)c2cccs2)cccc1-c1nc2ccccc2s1 | inconclusive: 16.3 µM [inhibitor, partial curve]

Source: PubChem BioAssay AID602364 (National Center for Advancing Translational Sciences (NCATS), 2012)
